Among the data in patent publication US20050043262A1, “Novel specific inhibitor of the cyclin kinase inhibitor p21Waf1/Cip1 and methods of using the inhibitor” (priority 2000, published 2005) are binding values, retold here.

Sequences of proteins named here, by UniProt entry; tags and fusion partners are left off.
UniProt P39948: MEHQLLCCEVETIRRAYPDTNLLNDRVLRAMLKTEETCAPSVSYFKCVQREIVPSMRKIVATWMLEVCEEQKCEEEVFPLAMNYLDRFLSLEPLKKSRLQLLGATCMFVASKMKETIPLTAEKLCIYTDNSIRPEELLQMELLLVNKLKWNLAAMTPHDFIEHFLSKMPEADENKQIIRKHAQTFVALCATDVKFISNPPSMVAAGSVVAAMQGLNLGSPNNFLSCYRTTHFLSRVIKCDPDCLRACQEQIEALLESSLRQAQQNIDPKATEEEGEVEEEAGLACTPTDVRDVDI
UniProt P24385: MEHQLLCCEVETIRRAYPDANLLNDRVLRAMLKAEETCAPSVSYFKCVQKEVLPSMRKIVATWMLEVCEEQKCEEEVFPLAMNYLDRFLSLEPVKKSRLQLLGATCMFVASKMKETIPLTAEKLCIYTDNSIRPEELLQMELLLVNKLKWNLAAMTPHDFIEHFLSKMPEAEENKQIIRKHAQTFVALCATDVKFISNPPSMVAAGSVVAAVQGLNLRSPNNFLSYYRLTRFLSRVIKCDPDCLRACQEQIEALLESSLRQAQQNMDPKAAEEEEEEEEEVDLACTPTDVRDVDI

Results are given in words; binding and its absence hold for the method and conditions named. Binding seen in cells or lysates may run through a third protein. Some binding calls cover weakened binding; strength is not graded here.

The target of assay [1] is T1, cdk 4 (endogenous, A10 rat aortic VSM cells) (rat) (UniProt P35426).
T1 sequence (looked up): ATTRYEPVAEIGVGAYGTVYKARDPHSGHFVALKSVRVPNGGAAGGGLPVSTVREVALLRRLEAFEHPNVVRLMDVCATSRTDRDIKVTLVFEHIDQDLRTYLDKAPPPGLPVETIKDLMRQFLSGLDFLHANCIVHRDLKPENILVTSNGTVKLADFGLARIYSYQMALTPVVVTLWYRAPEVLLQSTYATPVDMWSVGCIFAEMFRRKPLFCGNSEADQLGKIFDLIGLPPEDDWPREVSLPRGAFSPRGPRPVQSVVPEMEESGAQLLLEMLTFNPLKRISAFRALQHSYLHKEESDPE
The experiment in a line: co-immunoprecipitation from A10 VSM cell lysate, FIG. 7.

Assay [2] deals with T1, cdk 4 (endogenous, A10 rat aortic VSM cells) (rat). The experiment in a line: co-immunoprecipitation from A10 VSM cell lysate: IP cyclin D1, immunoblot cdk 4. Background: Immunoblotting shows a protein as a band on a membrane.
For assay [3], the target named is cdk4 (endogenous, A431 human squamous carcinoma cells) (human) (UniProt P11802). Put plainly: co-immunoprecipitation from A431 cell lysate: IP cyclin D1, immunoblot cdk4.
Assay [4] has the same target. Put plainly: co-immunoprecipitation from A431 cell lysate, FIG. 12.

As to “cyclin D1 (endogenous, A10 rat aortic VSM cells) (from UniProt P39948 1-295)”, the binding entry in assay [1] and in assay [2] was “binds” throughout.

As for “cyclin D1 (endogenous, A431 human squamous carcinoma cells) (from UniProt P24385 1-295)”, the binding entry in assay [3] and in assay [4] was “binds” throughout.
